Earlier results, collected in patent US5719132A, “Compositions and methods of treating HIV with d4T, 5-fluorouracil/tegafur, and uracil” (priority 1996, dated 1998).
At least one structure is not confirmed: it was looked up by name or label, or the drawing left a doubt.

Tested on: human immunodeficiency virus (HIV)
Settings: cited from earlier work

Cc1cn([C@H]2C[C@H](N=[N+]=[N-])[C@@H](CO)O2)c(=O)[nH]c1=O [AZT, azidothymidine]
antiviral activity against HIV: demonstrated antiviral activity
